Here are results for eight sequences from article PMC5606850, “Acidic C-terminal domains autoregulate the RNA chaperone Hfq” (eLife, 2017).

A weaker result is weaker than the reference pair of the same experiment. Construct, isoform or probe ends are uncertain for at least one entry. At least one verdict was read from the data and is not stated in words by the source.

The target in series [1] is Hfq65 (Hfq core, CTD deleted) (Escherichia coli) (UniProt P0A6X3). Kind of series: competition with a labelled probe. The conditions noted are these: CTD-FITC competition: 50 mM Tris-HCl pH 7.5, 30 C, pUC19 EMSA: 40 mM Tris-HCl pH 7.5, 0.14 mM EDTA, 35 mM NH4Cl, 3.7% glycerol, 25 C (competition legend 30 C), recombinant protein, residues 1-65, protein details: untagged.
The target of series [2] is Hfq102 (wild-type Hfq) (Escherichia coli) (UniProt P0A6X3). Kind of series: competition with a labelled probe. Particulars: CTD-FITC competition: 50 mM Tris-HCl pH 7.5, 30 C, pUC19 EMSA: 40 mM Tris-HCl pH 7.5, 0.14 mM EDTA, 35 mM NH4Cl, 3.7% glycerol, 25 C (competition legend 30 C), recombinant protein, residues 1-102, protein details: untagged.
The mark [3] stands for this setting: displaces CTD-FITC peptide, short oligomers poorer than sRNAs.
Setting [4] is: 400 nM DNA2 displaces remaining D16-FAM RNA, single-stranded DNA.

Turning to AAAAAAAAAAAAAAAAAA [A18], the binding result in series [1] (setting [3]) is “binds more weakly”.

Regarding CUUCCGUCCAUUUCGGACG [minRCRB], in series [2] (vs pUC19 EMSA, weak, 5' Thiol-C6), the binding result is “binds more weakly”.

Turning to GUGGUCAGUCGAGUGG [Target], the binding result is “binds more weakly” in series [2] (vs pUC19 EMSA, poor) and “binds more weakly” in series [1] (setting [3]).

For the sequence “GUGGUCAGUCGAGUGGAAAAAAAAAAAAAAAAAA [Target-A18]”, the binding result in series [1] (setting [3]) is reported as “binds more weakly”.

GUGGUCAGUCGAGUGGUUUUUU [Target-U6]: the binding result in series [1] (setting [3]) is listed as “binds more weakly”.

Regarding “TATCCGTATGACGTTCCGGACTATGCGGCTAAGGGGCAATCTTTAC [DNA1]”, in series [2] (vs pUC19 EMSA, weak, folded or branched DNA), the binding result was “binds more weakly”.

For the sequence “TTTTTCAAACTGCGGATGAGACCACATATGTATATCTCCTTCTTAAAGTTAAAC (double strand) [dsDNA2]”, in series [1] (displaces CTD-FITC peptide, weaker than length trend, letters put together from the description), the binding result is given as “binds more weakly”.

“TTTTTCAAACTGCGGATGAGACCACATATGTATATCTCCTTCTTAAAGTTAAAC [DNA2]”: the binding result in series [2] (setting [4]) is given as “binds”; in series [1] (setting [4]), “binds”; in series [1] (displaces CTD-FITC peptide, DNA oligomers poorer than sRNAs, single-stranded DNA), “binds more weakly”.
